According to publication PMC11226090:
No constants are given. Whether binding was seen depends on the method and setting. Some results given as binding are weak or reduced against the parent protein; the word gives no strength. For some assays here: Where a sequence is shown, tags or fusion partners need not be part of it. Each block holds one molecule with its values, some of them ahead of it.

The chains behind the UniProt entries cited, without tags or fusion partners. Residues count along the entry.
UniProt O60602, residues 691-836: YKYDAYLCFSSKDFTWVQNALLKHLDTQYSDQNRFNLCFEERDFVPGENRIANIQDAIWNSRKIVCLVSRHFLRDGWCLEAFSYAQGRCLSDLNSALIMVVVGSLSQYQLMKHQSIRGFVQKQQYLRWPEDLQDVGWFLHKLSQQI

Tests used:
[1] = target: TIR domain of human Toll-like receptor 5 (TLR5TIR), released from the MBP hybrid by thrombin (human) (UniProt O60602); test: SEC; gel filtration on Superdex 75i after thrombin cleavage of the MBP hybrid; 25 mM HEPES, 250 mM NaCl (TLR5) or 500 mM NaCl (TLR8), 1.5 mM TCEP, 15% glycerol, 0.005% NaN3, pH 8.3, 4°C; self-association, only an oligomeric fraction obtained; both purified
[2] = target: TIR domain of human Toll-like receptor 8 (TLR8TIR), released from the MBP hybrid by thrombin (human) (UniProt Q9NR97); test: as above

binding [1]: binds
Molecule: TIR domain of human Toll-like receptor 5 (TLR5TIR), released from the MBP hybrid by thrombin (from UniProt O60602 691-836) (domain or fragment)

binding [2]: binds
B1: TIR domain of human Toll-like receptor 8 (TLR8TIR), released from the MBP hybrid by thrombin (domain or fragment, UniProt Q9NR97 878-1022)
chain: TFYDAYISYDTKDASVTDWVINELRYHLEESRDKNVLLCLEERDWDPGLAIIDNLMQSINQSKKTVFVLTKKYAKSWNFKTAFYLALQRLMDENMDVIIFILLEPVLQHSQYLRLRQRICKSSILQWPDNPKAEGLFWQTLRNVV
